These results are taken from publication doi:10.1101/2025.04.26.650725.

Amino acid sequences for entries named in this document (tags omitted).
UniProt O43149: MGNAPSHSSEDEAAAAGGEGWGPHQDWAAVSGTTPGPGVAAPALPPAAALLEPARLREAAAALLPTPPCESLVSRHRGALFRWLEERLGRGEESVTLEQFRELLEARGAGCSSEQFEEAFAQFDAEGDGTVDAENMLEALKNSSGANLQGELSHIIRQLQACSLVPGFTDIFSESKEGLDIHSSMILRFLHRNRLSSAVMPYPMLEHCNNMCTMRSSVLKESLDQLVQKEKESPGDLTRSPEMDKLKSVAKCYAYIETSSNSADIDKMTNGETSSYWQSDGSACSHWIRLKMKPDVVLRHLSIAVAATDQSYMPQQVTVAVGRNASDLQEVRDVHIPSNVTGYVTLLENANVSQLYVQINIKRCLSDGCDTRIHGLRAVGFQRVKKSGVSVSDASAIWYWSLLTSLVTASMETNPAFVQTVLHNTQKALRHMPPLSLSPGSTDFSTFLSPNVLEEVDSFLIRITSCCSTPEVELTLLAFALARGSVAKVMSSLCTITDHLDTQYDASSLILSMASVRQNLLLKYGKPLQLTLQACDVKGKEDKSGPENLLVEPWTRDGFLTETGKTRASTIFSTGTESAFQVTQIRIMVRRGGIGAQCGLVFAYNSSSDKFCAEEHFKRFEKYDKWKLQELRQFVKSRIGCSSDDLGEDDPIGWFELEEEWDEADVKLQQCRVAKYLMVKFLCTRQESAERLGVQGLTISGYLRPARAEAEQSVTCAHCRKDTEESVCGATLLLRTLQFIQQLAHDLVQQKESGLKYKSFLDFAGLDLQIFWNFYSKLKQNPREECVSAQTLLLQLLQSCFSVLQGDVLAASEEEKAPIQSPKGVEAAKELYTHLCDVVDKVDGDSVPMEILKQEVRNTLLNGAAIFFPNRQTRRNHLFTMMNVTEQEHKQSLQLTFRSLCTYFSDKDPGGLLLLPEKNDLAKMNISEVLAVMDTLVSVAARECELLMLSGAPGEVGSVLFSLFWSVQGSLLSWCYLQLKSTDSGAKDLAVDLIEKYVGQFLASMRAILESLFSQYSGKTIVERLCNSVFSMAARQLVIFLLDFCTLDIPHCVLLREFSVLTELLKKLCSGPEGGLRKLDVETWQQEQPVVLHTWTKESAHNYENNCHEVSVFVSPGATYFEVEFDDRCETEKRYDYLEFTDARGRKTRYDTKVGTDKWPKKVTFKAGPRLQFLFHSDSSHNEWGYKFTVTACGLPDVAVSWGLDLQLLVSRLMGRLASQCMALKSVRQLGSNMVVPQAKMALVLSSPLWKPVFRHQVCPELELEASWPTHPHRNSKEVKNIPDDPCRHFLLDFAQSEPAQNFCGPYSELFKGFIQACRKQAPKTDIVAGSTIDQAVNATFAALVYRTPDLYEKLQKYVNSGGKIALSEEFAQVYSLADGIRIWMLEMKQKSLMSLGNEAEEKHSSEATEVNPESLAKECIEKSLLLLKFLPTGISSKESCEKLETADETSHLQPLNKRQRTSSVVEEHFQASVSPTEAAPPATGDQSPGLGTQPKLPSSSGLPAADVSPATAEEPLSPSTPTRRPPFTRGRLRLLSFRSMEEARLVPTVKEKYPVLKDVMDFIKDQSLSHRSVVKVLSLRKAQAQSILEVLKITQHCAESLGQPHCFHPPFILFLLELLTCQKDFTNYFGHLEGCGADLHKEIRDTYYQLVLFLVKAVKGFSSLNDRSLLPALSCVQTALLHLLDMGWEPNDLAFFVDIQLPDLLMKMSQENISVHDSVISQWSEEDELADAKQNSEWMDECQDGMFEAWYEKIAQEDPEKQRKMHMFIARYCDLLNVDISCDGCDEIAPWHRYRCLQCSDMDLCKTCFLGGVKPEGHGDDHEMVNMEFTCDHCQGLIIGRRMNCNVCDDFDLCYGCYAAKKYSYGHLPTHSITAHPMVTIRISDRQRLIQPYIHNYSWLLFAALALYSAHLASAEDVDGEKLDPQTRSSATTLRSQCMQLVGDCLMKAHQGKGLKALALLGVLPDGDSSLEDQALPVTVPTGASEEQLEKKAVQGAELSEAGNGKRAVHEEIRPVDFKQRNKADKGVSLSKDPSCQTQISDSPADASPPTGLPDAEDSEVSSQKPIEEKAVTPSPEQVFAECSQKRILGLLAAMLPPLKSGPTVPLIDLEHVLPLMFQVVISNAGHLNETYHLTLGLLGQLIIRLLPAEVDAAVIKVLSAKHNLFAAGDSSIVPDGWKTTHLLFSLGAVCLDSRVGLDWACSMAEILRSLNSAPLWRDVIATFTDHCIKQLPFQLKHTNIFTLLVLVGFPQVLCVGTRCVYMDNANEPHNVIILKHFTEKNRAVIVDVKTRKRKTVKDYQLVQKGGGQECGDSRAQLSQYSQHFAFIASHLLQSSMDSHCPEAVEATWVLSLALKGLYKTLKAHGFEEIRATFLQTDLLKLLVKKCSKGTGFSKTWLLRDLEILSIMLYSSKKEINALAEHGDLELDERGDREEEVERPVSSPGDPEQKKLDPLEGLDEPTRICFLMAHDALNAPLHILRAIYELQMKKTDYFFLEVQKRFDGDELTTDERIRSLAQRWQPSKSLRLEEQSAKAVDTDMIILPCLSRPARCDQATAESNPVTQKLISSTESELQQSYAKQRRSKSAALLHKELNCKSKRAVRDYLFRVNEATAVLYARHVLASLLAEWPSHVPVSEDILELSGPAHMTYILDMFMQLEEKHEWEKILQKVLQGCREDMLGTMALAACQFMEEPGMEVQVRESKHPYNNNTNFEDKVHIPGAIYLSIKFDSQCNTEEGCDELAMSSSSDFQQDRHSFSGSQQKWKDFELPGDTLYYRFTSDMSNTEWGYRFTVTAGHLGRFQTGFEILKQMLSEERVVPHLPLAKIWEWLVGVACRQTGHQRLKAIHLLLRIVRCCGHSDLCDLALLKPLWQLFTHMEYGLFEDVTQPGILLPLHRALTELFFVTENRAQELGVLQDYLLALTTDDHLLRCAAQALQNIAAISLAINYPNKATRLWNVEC
UniProt Q8TD26: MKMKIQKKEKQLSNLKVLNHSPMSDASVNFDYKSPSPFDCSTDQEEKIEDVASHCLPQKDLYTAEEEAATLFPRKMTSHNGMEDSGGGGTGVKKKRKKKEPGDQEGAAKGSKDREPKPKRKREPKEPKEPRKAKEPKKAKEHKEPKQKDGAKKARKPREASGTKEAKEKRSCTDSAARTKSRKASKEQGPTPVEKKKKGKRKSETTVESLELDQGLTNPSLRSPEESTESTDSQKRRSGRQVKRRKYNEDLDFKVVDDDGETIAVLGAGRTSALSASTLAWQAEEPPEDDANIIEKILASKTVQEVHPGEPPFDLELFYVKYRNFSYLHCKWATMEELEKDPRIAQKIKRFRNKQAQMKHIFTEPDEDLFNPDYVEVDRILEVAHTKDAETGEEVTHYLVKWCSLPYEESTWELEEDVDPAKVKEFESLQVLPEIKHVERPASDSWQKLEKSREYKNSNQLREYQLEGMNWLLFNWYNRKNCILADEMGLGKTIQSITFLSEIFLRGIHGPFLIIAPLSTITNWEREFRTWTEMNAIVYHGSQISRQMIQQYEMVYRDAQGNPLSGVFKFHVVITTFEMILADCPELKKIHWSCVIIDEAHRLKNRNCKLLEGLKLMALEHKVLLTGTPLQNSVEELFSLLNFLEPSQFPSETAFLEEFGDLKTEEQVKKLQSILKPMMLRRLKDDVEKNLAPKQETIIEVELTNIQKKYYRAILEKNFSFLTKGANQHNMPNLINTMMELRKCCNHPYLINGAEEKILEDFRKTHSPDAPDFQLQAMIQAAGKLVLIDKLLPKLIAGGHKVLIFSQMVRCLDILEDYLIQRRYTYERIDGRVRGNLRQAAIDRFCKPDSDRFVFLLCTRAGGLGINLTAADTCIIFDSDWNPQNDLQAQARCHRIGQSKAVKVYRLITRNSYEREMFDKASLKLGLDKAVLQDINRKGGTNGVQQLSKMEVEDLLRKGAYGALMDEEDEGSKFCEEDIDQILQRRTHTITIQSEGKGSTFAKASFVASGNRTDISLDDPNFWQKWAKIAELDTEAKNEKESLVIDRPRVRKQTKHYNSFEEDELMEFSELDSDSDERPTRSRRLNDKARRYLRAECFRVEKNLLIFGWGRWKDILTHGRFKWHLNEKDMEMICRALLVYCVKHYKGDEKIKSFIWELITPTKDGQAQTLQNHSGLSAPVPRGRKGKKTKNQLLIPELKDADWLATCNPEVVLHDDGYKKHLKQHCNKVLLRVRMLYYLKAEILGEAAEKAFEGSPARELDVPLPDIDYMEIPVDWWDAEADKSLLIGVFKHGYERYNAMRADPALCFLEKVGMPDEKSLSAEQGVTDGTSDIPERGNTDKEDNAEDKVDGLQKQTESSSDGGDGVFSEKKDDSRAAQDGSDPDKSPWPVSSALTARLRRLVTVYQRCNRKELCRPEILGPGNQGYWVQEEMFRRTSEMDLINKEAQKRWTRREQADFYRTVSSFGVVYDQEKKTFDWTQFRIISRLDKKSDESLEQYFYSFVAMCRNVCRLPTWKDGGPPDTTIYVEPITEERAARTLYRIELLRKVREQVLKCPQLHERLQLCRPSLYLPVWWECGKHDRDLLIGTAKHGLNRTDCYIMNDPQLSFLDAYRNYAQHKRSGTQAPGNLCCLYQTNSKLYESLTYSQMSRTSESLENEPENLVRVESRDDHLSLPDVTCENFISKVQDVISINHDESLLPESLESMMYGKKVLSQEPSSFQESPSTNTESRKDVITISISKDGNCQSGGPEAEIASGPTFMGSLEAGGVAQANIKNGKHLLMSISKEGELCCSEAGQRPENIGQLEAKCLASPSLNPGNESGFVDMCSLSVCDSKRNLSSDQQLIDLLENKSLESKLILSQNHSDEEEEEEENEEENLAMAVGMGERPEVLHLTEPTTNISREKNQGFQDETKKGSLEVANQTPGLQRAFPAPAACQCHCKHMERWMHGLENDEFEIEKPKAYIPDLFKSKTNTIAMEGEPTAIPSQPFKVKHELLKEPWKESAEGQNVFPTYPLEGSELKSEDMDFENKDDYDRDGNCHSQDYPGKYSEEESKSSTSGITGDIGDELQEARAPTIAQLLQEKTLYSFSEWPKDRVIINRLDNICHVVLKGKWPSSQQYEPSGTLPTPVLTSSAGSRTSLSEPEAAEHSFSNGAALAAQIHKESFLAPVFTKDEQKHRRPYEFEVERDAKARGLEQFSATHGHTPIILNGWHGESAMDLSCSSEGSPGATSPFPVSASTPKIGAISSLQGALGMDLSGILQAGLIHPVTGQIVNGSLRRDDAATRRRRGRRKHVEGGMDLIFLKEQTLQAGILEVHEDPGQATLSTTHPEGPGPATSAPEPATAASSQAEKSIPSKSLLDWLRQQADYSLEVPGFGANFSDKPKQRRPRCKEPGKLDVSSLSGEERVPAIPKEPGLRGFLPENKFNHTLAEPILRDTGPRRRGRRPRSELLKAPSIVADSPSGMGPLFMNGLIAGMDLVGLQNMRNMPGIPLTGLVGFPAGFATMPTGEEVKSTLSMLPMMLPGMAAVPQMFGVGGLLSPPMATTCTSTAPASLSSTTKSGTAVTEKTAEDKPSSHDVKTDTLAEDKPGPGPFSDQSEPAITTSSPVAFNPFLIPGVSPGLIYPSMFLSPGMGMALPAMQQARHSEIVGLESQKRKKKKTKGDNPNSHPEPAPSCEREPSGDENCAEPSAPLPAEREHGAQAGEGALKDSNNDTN

The experiment deals with Zinc Finger ZZ-Type And EF-Hand Domain Containing 1 (ZZEF1) (human (endogenous in MDA-MB-231)) (UniProt O43149). As to the kind of experiment: co-IP.

These are yes or no findings as the source states them, for the method shown. Binding seen in cells or lysates may run through a third protein. Some binding calls cover weakened binding; strength is not graded here.

As to “Chromodomain Helicase DNA Binding Protein 6 (CHD6) (from UniProt Q8TD26 1-2715)”, the binding entry is on record as “binds”.
